Experimental data reported in the M2OR odorant receptor database.
The list shows a part of the results, in another mix than the full data. The calls were merged from several studies; some rest on single wells. The list shows a part of the results.

Sequences of proteins named here, by UniProt entry; tags and fusion partners are left off. A change or cut given only in a name is not applied to a line headed by its entry.
UniProt Q9H342: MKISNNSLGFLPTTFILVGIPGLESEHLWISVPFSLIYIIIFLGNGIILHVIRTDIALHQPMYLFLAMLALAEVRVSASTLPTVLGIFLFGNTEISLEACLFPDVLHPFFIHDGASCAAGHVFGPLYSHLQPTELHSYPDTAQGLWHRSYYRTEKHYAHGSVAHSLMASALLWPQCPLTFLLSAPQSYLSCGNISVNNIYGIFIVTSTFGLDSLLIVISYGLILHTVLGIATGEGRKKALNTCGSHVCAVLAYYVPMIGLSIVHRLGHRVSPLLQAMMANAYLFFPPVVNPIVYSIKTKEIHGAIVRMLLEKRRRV
UniProt Q9H2C8: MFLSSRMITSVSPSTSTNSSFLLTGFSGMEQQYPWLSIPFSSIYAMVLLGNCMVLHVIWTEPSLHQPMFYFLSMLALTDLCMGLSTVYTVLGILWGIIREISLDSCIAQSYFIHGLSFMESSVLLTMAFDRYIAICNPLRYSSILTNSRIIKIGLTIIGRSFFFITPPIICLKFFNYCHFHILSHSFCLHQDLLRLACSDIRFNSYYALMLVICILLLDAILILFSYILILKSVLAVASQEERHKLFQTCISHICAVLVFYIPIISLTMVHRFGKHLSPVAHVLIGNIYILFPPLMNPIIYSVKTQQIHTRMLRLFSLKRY
UniProt Q8NGJ4: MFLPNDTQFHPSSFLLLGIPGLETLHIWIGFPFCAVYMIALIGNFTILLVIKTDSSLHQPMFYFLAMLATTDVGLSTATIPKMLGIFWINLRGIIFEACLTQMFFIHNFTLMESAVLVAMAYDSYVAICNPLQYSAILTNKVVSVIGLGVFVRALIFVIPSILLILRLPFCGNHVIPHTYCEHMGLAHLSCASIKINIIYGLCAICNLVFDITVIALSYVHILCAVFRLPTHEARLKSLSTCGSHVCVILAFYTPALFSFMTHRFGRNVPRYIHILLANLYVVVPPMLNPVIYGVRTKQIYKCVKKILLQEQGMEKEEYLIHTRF
UniProt Q8NGH9: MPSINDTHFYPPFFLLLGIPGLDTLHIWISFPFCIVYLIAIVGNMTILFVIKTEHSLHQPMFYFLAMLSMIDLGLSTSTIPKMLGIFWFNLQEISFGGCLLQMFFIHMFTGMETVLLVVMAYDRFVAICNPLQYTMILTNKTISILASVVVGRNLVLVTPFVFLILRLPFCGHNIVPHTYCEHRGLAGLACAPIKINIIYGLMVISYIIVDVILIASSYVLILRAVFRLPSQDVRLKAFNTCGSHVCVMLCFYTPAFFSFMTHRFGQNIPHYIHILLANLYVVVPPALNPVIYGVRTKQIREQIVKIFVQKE
UniProt Q8NH55: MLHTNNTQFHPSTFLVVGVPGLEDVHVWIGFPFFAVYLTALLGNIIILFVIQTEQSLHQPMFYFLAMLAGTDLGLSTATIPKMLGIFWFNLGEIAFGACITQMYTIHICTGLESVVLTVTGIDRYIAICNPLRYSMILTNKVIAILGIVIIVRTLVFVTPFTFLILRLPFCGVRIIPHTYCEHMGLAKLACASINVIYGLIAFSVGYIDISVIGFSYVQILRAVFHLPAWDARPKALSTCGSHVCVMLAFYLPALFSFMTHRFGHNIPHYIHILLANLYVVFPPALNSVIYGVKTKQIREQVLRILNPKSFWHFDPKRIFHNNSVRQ

What was measured:
Conditions in all cases: stereoisomer not certain
OR51I1 (Homo sapiens) = target: T1, OR51I1 (Homo sapiens) (UniProt Q9H343)
T1 sequence (whole entry): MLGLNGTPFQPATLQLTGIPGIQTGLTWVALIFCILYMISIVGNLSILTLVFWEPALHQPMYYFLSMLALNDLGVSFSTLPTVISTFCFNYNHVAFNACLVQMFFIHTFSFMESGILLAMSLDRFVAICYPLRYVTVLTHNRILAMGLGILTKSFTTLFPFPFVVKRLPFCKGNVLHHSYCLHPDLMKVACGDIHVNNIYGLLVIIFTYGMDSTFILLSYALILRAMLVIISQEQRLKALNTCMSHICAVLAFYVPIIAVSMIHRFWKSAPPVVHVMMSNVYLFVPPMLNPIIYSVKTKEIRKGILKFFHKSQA
Outline: (§1)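 Each entry records the cell line, G-protein, co-transfected protein and tags used. Methods varied with the source, often transient luciferase assays in mammalian cell lines. A receptor–molecule pair is called responsive (active) if the original authors judged its signal statistically different from baseline and non-responsive (inactive) otherwise.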

OR51I2 (Homo sapiens) = target: T2, OR51I2 (Homo sapiens) (UniProt Q9H344)
T2 sequence (whole entry): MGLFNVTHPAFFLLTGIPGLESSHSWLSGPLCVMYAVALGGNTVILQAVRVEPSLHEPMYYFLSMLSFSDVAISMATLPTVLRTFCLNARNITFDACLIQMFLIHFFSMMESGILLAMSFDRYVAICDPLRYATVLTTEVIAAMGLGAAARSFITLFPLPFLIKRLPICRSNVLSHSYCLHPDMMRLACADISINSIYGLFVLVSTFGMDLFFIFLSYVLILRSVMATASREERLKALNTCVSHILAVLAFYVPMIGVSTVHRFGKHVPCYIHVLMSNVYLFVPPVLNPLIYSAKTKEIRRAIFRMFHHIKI
Outline: as §1

OR51L1 (Homo sapiens) = target: T3, OR51L1 (Homo sapiens) (UniProt Q8NGJ5)
T3 sequence (whole entry): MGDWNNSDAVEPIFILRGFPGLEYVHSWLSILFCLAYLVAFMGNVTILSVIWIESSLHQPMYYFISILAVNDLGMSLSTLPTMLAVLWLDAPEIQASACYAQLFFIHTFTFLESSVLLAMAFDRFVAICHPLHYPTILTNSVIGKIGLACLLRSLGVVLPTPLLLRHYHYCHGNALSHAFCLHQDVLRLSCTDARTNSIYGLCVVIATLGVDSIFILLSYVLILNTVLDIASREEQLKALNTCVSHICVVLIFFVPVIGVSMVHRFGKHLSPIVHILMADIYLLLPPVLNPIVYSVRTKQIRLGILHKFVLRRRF
Outline: as §1

OR51S1 (Homo sapiens) = target: T4, OR51S1 (Homo sapiens) (UniProt Q8NGJ8)
T4 sequence (whole entry): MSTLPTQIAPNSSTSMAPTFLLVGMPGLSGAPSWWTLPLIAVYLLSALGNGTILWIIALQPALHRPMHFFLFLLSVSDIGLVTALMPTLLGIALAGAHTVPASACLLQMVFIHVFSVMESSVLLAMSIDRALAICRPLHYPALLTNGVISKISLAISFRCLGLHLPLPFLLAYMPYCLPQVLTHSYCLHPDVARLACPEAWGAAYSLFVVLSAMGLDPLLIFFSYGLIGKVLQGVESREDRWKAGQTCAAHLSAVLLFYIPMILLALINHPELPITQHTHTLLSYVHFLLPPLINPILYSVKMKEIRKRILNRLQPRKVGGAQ
Outline: as §1

OR52A4P (Homo sapiens) = target: T5, OR52A4P (Homo sapiens) (UniProt A6NMU1)
T5 sequence (whole entry): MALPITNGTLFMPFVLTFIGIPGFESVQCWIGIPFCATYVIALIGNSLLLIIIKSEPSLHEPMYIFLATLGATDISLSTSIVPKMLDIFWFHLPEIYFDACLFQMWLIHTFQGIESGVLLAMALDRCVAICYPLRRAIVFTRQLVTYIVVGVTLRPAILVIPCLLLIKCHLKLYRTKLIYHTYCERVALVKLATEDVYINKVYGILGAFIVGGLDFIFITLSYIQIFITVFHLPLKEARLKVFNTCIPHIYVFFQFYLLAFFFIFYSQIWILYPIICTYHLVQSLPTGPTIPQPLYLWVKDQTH
Outline: as §1

OR52A5 (Homo sapiens) = target: T6, OR52A5 (Homo sapiens) (UniProt Q9H2C5)
T6 sequence (whole entry): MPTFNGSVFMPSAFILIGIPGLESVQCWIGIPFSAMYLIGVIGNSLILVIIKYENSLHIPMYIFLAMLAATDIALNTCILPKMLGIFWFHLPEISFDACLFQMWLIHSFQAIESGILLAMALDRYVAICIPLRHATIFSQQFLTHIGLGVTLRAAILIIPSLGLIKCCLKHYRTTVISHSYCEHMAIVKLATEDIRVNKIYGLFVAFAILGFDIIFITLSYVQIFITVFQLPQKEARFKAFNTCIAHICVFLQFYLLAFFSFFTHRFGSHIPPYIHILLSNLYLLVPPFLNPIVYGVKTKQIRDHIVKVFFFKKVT
Outline: as §1

OR52B4 (Homo sapiens) = target: T7, OR52B4 (Homo sapiens) (UniProt Q8NGK2)
T7 sequence (whole entry): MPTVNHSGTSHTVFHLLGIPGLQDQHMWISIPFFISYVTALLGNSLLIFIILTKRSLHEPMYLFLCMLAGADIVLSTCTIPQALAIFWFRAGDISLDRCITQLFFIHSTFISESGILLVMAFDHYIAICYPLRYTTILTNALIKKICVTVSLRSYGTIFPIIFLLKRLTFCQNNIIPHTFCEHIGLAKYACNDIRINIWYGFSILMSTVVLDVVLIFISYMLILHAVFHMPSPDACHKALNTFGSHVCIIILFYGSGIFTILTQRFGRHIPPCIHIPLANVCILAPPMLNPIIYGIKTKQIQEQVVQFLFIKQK
Outline: as §1

OR52D1 (Homo sapiens) = target: T8, OR52D1 (Homo sapiens) (UniProt Q9H346)
T8 sequence (whole entry): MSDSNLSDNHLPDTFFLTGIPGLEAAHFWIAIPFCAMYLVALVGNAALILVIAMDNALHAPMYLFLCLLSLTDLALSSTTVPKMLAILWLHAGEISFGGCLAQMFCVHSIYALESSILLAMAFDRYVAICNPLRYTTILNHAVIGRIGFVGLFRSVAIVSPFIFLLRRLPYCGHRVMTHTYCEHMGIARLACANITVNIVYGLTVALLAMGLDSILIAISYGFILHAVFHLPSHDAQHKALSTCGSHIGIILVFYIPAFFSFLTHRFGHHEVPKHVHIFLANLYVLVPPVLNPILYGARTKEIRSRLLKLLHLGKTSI
Outline: as §1

OR52A1 (Homo sapiens) = target: T9, OR52A1 (Homo sapiens) (UniProt Q9UKL2)
T9 sequence (whole entry): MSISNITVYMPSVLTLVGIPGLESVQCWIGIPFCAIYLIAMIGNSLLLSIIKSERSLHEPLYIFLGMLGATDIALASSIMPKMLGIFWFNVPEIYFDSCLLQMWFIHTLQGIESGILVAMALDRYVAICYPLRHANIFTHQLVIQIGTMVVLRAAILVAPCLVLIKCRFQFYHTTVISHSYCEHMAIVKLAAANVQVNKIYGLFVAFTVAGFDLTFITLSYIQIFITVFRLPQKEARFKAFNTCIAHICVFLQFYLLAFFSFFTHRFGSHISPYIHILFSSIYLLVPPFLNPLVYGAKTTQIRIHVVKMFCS
Outline: as §1

OR52B2 (Homo sapiens) = target: T10, OR52B2 (Homo sapiens) (UniProt Q96RD2)
T10 sequence (whole entry): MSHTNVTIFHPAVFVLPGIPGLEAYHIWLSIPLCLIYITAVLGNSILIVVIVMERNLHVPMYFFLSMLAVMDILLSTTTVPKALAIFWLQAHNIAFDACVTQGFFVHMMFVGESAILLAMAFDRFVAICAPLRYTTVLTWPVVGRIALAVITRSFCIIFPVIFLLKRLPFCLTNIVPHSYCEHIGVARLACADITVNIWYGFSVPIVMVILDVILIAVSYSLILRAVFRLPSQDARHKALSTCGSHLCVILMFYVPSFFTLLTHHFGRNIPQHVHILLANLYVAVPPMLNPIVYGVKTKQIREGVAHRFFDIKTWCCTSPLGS
Outline: as §1

OR51J1 (Homo sapiens) = OR51J1 (Homo sapiens) (UniProt Q9H342)
Outline: as §1

OR51M1 (Homo sapiens) = target: T11, OR51M1 (Homo sapiens) (UniProt Q9H341)
T11 sequence (whole entry): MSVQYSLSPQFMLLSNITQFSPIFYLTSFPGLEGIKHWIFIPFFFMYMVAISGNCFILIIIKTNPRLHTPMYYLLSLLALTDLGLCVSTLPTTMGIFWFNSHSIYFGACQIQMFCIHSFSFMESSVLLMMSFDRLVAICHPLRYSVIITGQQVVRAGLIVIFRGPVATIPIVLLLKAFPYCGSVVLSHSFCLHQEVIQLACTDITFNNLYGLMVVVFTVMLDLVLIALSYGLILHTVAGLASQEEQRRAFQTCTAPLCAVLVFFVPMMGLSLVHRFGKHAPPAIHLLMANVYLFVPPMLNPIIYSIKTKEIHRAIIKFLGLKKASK
Outline: as §1

OR51Q1 (Homo sapiens) = target: T12, OR51Q1 (Homo sapiens) (UniProt Q8NH59)
T12 sequence (whole entry): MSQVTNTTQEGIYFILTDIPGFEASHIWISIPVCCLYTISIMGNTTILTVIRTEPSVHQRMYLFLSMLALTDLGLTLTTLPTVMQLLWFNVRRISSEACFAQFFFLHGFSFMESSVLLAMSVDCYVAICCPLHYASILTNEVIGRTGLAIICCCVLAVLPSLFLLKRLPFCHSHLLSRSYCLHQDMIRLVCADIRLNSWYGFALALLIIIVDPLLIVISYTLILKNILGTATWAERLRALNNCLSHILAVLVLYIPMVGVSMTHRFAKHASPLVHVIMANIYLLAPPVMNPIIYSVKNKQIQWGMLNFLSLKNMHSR
Outline: as §1

OR51T1 (Homo sapiens) = target: T13, OR51T1 (Homo sapiens) (UniProt Q8NGJ9)
T13 sequence (whole entry): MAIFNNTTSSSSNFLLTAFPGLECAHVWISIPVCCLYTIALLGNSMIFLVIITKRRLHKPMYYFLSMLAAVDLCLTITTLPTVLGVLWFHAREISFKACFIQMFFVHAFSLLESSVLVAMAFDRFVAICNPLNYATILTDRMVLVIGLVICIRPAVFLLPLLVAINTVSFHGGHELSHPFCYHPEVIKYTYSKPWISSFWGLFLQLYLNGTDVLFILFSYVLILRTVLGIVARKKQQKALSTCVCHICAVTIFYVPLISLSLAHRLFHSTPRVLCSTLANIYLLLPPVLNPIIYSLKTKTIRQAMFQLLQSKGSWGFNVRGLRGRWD
Outline: as §1

OR51V1 (Homo sapiens) = OR51V1 (Homo sapiens) (UniProt Q9H2C8)
Outline: as §1

OR52B6 (Homo sapiens) = target: T14, OR52B6 (Homo sapiens) (UniProt Q8NGF0)
T14 sequence (whole entry): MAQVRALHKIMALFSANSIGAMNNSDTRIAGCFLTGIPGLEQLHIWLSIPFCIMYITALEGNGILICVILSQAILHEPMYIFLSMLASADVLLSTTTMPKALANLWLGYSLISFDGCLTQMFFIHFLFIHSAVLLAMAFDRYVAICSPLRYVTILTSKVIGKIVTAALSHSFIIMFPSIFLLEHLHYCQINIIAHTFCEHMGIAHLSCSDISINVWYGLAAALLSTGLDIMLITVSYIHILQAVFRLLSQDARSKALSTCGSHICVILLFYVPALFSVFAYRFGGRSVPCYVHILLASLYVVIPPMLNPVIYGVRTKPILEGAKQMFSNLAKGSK
Outline: as §1

OR52E2 (Homo sapiens) = OR52E2 (Homo sapiens) (UniProt Q8NGJ4)
Outline: as §1

OR52E4 (Homo sapiens) = OR52E4 (Homo sapiens) (UniProt Q8NGH9)
Outline: as §1

OR52E5 (Homo sapiens) = OR52E5 (Homo sapiens) (UniProt Q8NH55)
Outline: as §1

Compound	odorant receptor agonist call (OR51I1 (Homo sapiens))	odorant receptor agonist call (OR51I2 (Homo sapiens))	odorant receptor agonist call (OR51L1 (Homo sapiens))	odorant receptor agonist call (OR51S1 (Homo sapiens))	odorant receptor agonist call (OR52A4P (Homo sapiens))	odorant receptor agonist call (OR52A5 (Homo sapiens))	odorant receptor agonist call (OR52B4 (Homo sapiens))	odorant receptor agonist call (OR52D1 (Homo sapiens))	odorant receptor agonist call (OR52A1 (Homo sapiens))	odorant receptor agonist call (OR52B2 (Homo sapiens))	odorant receptor agonist call (OR51J1 (Homo sapiens))	odorant receptor agonist call (OR51M1 (Homo sapiens))	odorant receptor agonist call (OR51Q1 (Homo sapiens))	odorant receptor agonist call (OR51T1 (Homo sapiens))	odorant receptor agonist call (OR51V1 (Homo sapiens))	odorant receptor agonist call (OR52B6 (Homo sapiens))	odorant receptor agonist call (OR52E2 (Homo sapiens))	odorant receptor agonist call (OR52E4 (Homo sapiens))	odorant receptor agonist call (OR52E5 (Homo sapiens))
CCCCCC(=O)O	inactive	inactive	active	inactive	inactive	inactive	inactive	active											
CC(C)=CCCC(C)=CC=O	active	inactive	inactive	inactive	inactive	active	inactive	active	inactive	active									
CC(=O)C(C)=O	inactive	inactive	inactive	inactive	inactive	inactive	inactive	inactive	inactive	inactive	inactive	inactive	inactive	inactive	inactive	inactive	inactive	inactive	inactive
CCCCCCCC=O	inactive	inactive	inactive	inactive	inactive	inactive	inactive	active											
CCC=CCCO	inactive	inactive	inactive	inactive	inactive	inactive	inactive	inactive											
